Laboratory results taken from article doi:10.1101/2024.03.19.585677.

Assays:
[1] = test system: GST-TrxA (Xanthomonas campestris); assay: EMSA; conditions: TrxA alone
[2] = molecular target: PSB15 WT (Xanthomonas phage phiLf-UK) (UniProt Q8P905); assay: EMSA; conditions: apparent Kd
[3] = molecular target: PSB15 WT (Xanthomonas phage phiLf-UK) (UniProt Q8P905); assay: UV cross-linking, Edman sequencing; conditions: F15 is the contact residue

CGCGGGCCTCTACAACCGGCACCGTG [phiLf-UK/phiLf PS]
binding result [1]: no binding
Kd [2]: 10.2 nM
binding result [3]: binds

For at least one entry, the source does not settle the construct or the ends of the probe. For part of these data: Negatives hold for the conditions tested.
